Measured values published in article PMC3830446.
Results are given in words; binding and its absence hold for the method and conditions named. Binding seen in cells or lysates may run through a third protein. Here binding means that the protein was enriched with, or labelled near, the bait; the list need not be complete.

Protein sequences, listed by entry. Tags and fused reporters are not part of them.
UniProt P30086: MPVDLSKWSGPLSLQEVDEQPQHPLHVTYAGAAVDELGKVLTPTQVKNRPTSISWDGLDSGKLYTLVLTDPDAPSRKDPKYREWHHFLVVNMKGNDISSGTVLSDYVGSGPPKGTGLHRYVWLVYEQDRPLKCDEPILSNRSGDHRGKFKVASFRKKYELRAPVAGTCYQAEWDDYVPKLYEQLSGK

Biological target: RKIP-3xFLAG fusion protein (UniProt P30086)
Assay: affinity purification with mass spectrometry; RKIP-3xFLAG from transfected SGC7901 cells held on anti-FLAG M2 magnetic beads (overnight, 4°C); 1D SDS-PAGE, in-gel trypsin digestion, ESI-Q-TOF MS/MS; 3xFLAG (blank carrier) and blank groups as controls; repeated three times

B1: Argininosuccinate synthase (protein, UniProt P00966 1-412)
chain: MSSKGSVVLAYSGGLDTSCILVWLKEQGYDVIAYLANIGQKEDFEEARKKALKLGAKKVFIEDVSREFVEEFIWPAIQSSALYEDRYLLGTSLARPCIARKQVEIAQREGAKYVSHGATGKGNDQVRFELSCYSLAPQIKVIAPWRMPEFYNRFKGRNDLMEYAKQHGIPIPVTPKNPWSMDENLMHISYEAGILENPKNQAPPGLYTKTQDPAKAPNTPDILEIEFKKGVPVKVTNVKDGTTHQTSLELFMYLNEVAGKHGVGRIDIVENRFIGMKSRGIYETPAGTILYHAHLDIEAFTMDREVRKIKQGLGLKFAELVYTGFWHSPECEFVRHCIAKSQERVEGKVQVSVLKGQVYILGRESPLSLYNEELVSMNVQGDYEPTDATGFININSLRLKEYHRLQSKVTAK
binding: binds

B2: Keratin, type I cytoskeletal 18 (protein, UniProt P05783 1-430)
chain: MSFTTRSTFSTNYRSLGSVQAPSYGARPVSSAASVYAGAGGSGSRISVSRSTSFRGGMGSGGLATGIAGGLAGMGGIQNEKETMQSLNDRLASYLDRVRSLETENRRLESKIREHLEKKGPQVRDWSHYFKIIEDLRAQIFANTVDNARIVLQIDNARLAADDFRVKYETELAMRQSVENDIHGLRKVIDDTNITRLQLETEIEALKEELLFMKKNHEEEVKGLQAQIASSGLTVEVDAPKSQDLAKIMADIRAQYDELARKNREELDKYWSQQIEESTTVVTTQSAEVGAAETTLTELRRTVQSLEIDLDSMRNLKASLENSLREVEARYALQMEQLNGILLHLESELAQTRAEGQRQAQEYEALLNIKVKLEAEIATYRRLLEDGEDFNLGDALDSSNSMQTIQKTTTRRIVDGKVVSETNDTKVLRH
binding: binds

B3: Fructose-bisphosphate aldolase A (protein, UniProt P04075 1-364)
chain: MPYQYPALTPEQKKELSDIAHRIVAPGKGILAADESTGSIAKRLQSIGTENTEENRRFYRQLLLTADDRVNPCIGGVILFHETLYQKADDGRPFPQVIKSKGGVVGIKVDKGVVPLAGTNGETTTQGLDGLSERCAQYKKDGADFAKWRCVLKIGEHTPSALAIMENANVLARYASICQQNGIVPIVEPEILPDGDHDLKRCQYVTEKVLAAVYKALSDHHIYLEGTLLKPNMVTPGHACTQKFSHEEIAMATVTALRRTVPPAVTGITFLSGGQSEEEASINLNAINKCPLLKPWALTFSYGRALQASALKAWGGKKENLKAAQEEYVKRALANSLACQGKYTPSGQAGAAASESLFVSNHAY
binding: binds

B4: Tropomodulin-3 (protein, UniProt Q9NYL9 1-352)
chain: MALPFRKDLEKYKDLDEDELLGNLSETELKQLETVLDDLDPENALLPAGFRQKNQTSKSTTGPFDREHLLSYLEKEALEHKDREDYVPYTGEKKGKIFIPKQKPVQTFTEEKVSLDPELEEALTSASDTELCDLAAILGMHNLITNTKFCNIMGSSNGVDQEHFSNVVKGEKILPVFDEPPNPTNVEESLKRTKENDAHLVEVNLNNIKNIPIPTLKDFAKALETNTHVKCFSLAATRSNDPVATAFAEMLKVNKTLKSLNVESNFITGVGILALIDALRDNETLAELKIDNQRQQLGTAVELEMAKMLEENTNILKFGYQFTQQGPRTRAANAITKNNDLVRKRRVEGDHQ
binding: binds

B5: Rab GDP dissociation inhibitor beta (protein, UniProt P50395 1-445)
chain: MNEEYDVIVLGTGLTECILSGIMSVNGKKVLHMDRNPYYGGESASITPLEDLYKRFKIPGSPPESMGRGRDWNVDLIPKFLMANGQLVKMLLYTEVTRYLDFKVTEGSFVYKGGKIYKVPSTEAEALASSLMGLFEKRRFRKFLVYVANFDEKDPRTFEGIDPKKTTMRDVYKKFDLGQDVIDFTGHALALYRTDDYLDQPCYETINRIKLYSESLARYGKSPYLYPLYGLGELPQGFARLSAIYGGTYMLNKPIEEIIVQNGKVIGVKSEGEIARCKQLICDPSYVKDRVEKVGQVIRVICILSHPIKNTNDANSCQIIIPQNQVNRKSDIYVCMISFAHNVAAQGKYIAIVSTTVETKEPEKEIRPALELLEPIEQKFVSISDLLVPKDLGTESQIFISRTYDATTHFETTCDDIKNIYKRMTGSEFDFEEMKRKKNDIYGED
binding: binds

B6: Aldo-keto reductase family 1 member C3 (protein, UniProt P42330 1-323)
chain: MDSKHQCVKLNDGHFMPVLGFGTYAPPEVPRSKALEVTKLAIEAGFRHIDSAHLYNNEEQVGLAIRSKIADGSVKREDIFYTSKLWSTFHRPELVRPALENSLKKAQLDYVDLYLIHSPMSLKPGEELSPTDENGKVIFDIVDLCTTWEAMEKCKDAGLAKSIGVSNFNRRQLEMILNKPGLKYKPVCNQVECHPYFNRSKLLDFCKSKDIVLVAYSALGSQRDKRWVDPNSPVLLEDPVLCALAKKHKRTPALIALRYQLQRGVVVLAKSYNEQRIRQNVQVFEFQLTAEDMKAIDGLDRNLHYFNSDSFASHPNYPYSDEY
binding: binds

B7: 3-hydroxyacyl-CoA dehydrogenase type-2, isoform 1 (protein, UniProt Q99714 1-261)
chain: MAAACRSVKGLVAVITGGASGLGLATAERLVGQGASAVLLDLPNSGGEAQAKKLGNNCVFAPADVTSEKDVQTALALAKGKFGRVDVAVNCAGIAVASKTYNLKKGQTHTLEDFQRVLDVNLMGTFNVIRLVAGEMGQNEPDQGGQRGVIINTASVAAFEGQVGQAAYSASKGGIVGMTLPIARDLAPIGIRVMTIAPGLFGTPLLTSLPEKVCNFLASQVPFPSRLGDPAEYAHLVQAIIENPFLNGEVIRLDGAIRMQP
binding: binds

B8: Isoleucyl-tRNA synthetase, cytoplasmic (protein, UniProt P41252 1-1262)
chain: MLQQVPENINFPAEEEKILEFWTEFNCFQECLKQSKHKPKFTFYDGPPFATGLPHYGHILAGTIKDIVTRYAHQSGFHVDRRFGWDCHGLPVEYEIDKTLGIRGPEDVAKMGITEYNNQCRAIVMRYSAEWKSTVSRLGRWIDFDNDYKTLYPQFMESVWWVFKQLYDKGLVYRGVKVMPFSTACNTPLSNFESHQNYKDVQDPSVFVTFPLEEDETVSLVAWTTTPWTLPSNLAVCVNPEMQYVKIKDVARGRLLILMEARLSALYKLESDYEILERFPGAYLKGKKYRPLFDYFLKCKENGAFTVLVDNYVKEEEGTGVVHQAPYFGAEDYRVCMDFNIIRKDSLPVCPVDASGCFTTEVTDFAGQYVKDADKSIIRTLKEQGRLLVATTFTHSYPFCWRSDTPLIYKAVPSWFVRVENMVDQLLRNNDLCYWVPELVREKRFGNWLKDARDWTISRNRYWGTPIPLWVSDDFEEVVCIGSVAELEELSGAKISDLHRESVDHLTIPSRCGKGSLHRISEVFDCWFESGSMPYAQVHYPFENKREFEDAFPADFIAEGIDQTRGWFYTLLVLATALFGQPPFKNVIVNGLVLASDGQKMSKRKKNYPDPVSIIQKYGADALRLYLINSPVVRAENLRFKEEGVRDVLKDVLLPWYNAYRFLIQNVLRLQKEEEIEFLYNENTVRESPNITDRWILSFMQSLIGFFETEMAAYRLYTVVPRLVKFVDILTNWYVRMNRRRLKGENGMEDCVMALETLFSVLLSLCRLMAPYTPFLTELMYQNLKVLIDPVSVQDKDTLSIHYLMLPRVREELIDKKTESAVSQMQSVIELGRVIRDRKTIPIKYPLKEIVVIHQDPEALKDIKSLEKYIIEELNVRKVTLSTDKNKYGIRLRAEPDHMVLGKRLKGAFKAVMTSIKQLSSEELEQFQKTGTIVVEGHELHDEDIRLMYTFDQATGGTAQFEAHSDAQALVLLDVTPDQSMVDEGMAREVINRIQKLRKKCNLVPTDEITVYYKAKSEGTYLNSVIESHTEFIFTTIKAPLKPYPVSPSDKVLIQEKTQLKGSELEITLTRGSSLPGPACAYVNLNICANGSEQGGVLLLENPKGDNRLDLLKLKSVVTSIFGVKNTELAVFHDETEIQNQTDLLSLSGKTLCVTAGSAPSLINSSSTLLCQYINLQLLNAKPQECLMGTVGTLLLENPLGQNGLTHQGLLYEAAKVFGLRSRKLKLFLNETQTQEITEDIPVKTLNMKTVYVSVLPTTADF
binding: binds

B9: Valyl-tRNA synthetase (protein, UniProt P26640 1-1264)
chain: MSTLYVSPHPDAFPSLRALIAARYGEAGEGPGWGGAHPRICLQPPPTSRTPFPPPRLPALEQGPGGLWVWGATAVAQLLWPAGLGGPGGSRAAVLVQQWVSYADTELIPAACGATLPALGLRSSAQDPQAVLGALGRALSPLEEWLRLHTYLAGEAPTLADLAAVTALLLPFRYVLDPPARRIWNNVTRWFVTCVRQPEFRAVLGEVVLYSGARPLSHQPGPEAPALPKTAAQLKKEAKKREKLEKFQQKQKIQQQQPPPGEKKPKPEKREKRDPGVITYDLPTPPGEKKDVSGPMPDSYSPRYVEAAWYPWWEQQGFFKPEYGRPNVSAANPRGVFMMCIPPPNVTGSLHLGHALTNAIQDSLTRWHRMRGETTLWNPGCDHAGIATQVVVEKKLWREQGLSRHQLGREAFLQEVWKWKEEKGDRIYHQLKKLGSSLDWDRACFTMDPKLSAAVTEAFVRLHEEGIIYRSTRLVNWSCTLNSAISDIEVDKKELTGRTLLSVPGYKEKVEFGVLVSFAYKVQGSDSDEEVVVATTRIETMLGDVAVAVHPKDTRYQHLKGKNVIHPFLSRSLPIVFDEFVDMDFGTGAVKITPAHDQNDYEVGQRHGLEAISIMDSRGALINVPPPFLGLPRFEARKAVLVALKERGLFRGIEDNPMVVPLCNRSKDVVEPLLRPQWYVRCGEMAQAASAAVTRGDLRILPEAHQRTWHAWMDNIREWCISRQLWWGHRIPAYFVTVSDPAVPPGEDPDGRYWVSGRNEAEAREKAAKEFGVSPDKISLQQDEDVLDTWFSSGLFPLSILGWPNQSEDLSVFYPGTLLETGHDILFFWVARMVMLGLKLTGRLPFREVYLHAIVRDAHGRKMSKSLGNVIDPLDVIYGISLQGLHNQLLNSNLDPSEVEKAKEGQKADFPAGIPECGTDALRFGLCAYMSQGRDINLDVNRILGYRHFCNKLWNATKFALRGLGKGFVPSPTSQPGGHESLVDRWIRSRLTEAVRLSNQGFQAYDFPAVTTAQYSFWLYELCDVYLECLKPVLNGVDQVAAECARQTLYTCLDVGLRLLSPFMPFVTEELFQRLPRRMPQAPPSLCVTPYPEPSECSWKDPEAEAALELALSITRAVRSLRADYNLTRIRPDCFLEVADEATGALASAVSGYVQALASAGVVAVLALGAPAPQGCAVALASDRCSIHLQLQGLVDPARELGKLQAKRVEAQRQAQRLRERRAASGYPVKVPLEVQEADEAKLQQTEAELRKVDEAIALFQKML
binding: binds
